Experimental data taken from PubChem BioAssay AID504467 (National Center for Advancing Translational Sciences (NCATS), 2011).
Hit rate of the full screen: of about 330,000 compounds, about 7,700 (2.3%) were called active. This list was built around the results that the source calls inconclusive (neither active nor inactive); the mix of calls is not that of the screen. Calls follow the shape of the dose curve; as a rule, active = well fitted inhibition curve with a large enough effect; inconclusive = small, poorly fitted or top-dose-only effect, or effect the other way; inactive = flat fitted curve, though single readings scatter. Potencies beside an inconclusive call are fits to weak or partial responses and may not hold up.

assay: qHTS screen for small molecules that inhibit ELG1-dependent DNA repair in human embryonic kidney (HEK293T) cells expressing luciferase-tagged ELG1; settings: HEK293T ELG1-luciferase reporter, luminescence, 16 h, DNA damage induced by 5-fluorouridine; activity change, negative = inhibition: at 46.1 µM (top of the series); also: nearly all actives have a fitted effect of over 55% in size
Method in brief: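 Cells (2,000 per well) received 5-fluorouridine plus test compound or DMSO and were incubated 16 hr at 37 °C, 5% CO2. Luciferase activity was read by luminescence 30 min after ONE-Glo addition; signal suppression marked inhibition of damage-induced ELG1 function.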
% is scaled to controls: 0 for no effect and ±100 for the full control effect; potency is read from the fitted curve at half-maximal effect.

SMILES | Potency | activity change, negative = inhibition
Cc1c(C)c2ccc(OC(C)C(=O)NC3CCN(Cc4ccccc4)CC3)cc2oc1=O (stereo unspecified) | inconclusive: 18.3 µM [activator, single point] | 
COc1ccc(NC(=O)C(=O)NCCN2CCN(C(=O)C(c3ccccc3)c3ccccc3)CC2)cc1 | inconclusive: 18.4 µM [inhibitor, partial curve] | 
CCc1ccccc1NC(=O)C1CCN(S(=O)(=O)c2ccc3c(c2)N(C(C)=O)CCO3)CC1 |  | inactive: 0.84%
COc1ccc(NC(=O)O/N=C/c2ccc(N(C)C)cc2)cc1 |  | inactive: 29.3%
COc1cc(NS(=O)(=O)c2ccc(-c3ccc(=O)[nH]n3)o2)cc(OC)c1OC | inconclusive: 16.4 µM [activator, partial curve, poor fit] | 
Cc1csc(N)n1 | inconclusive: 32.6 µM [activator, partial curve, poor fit] | 
COc1ccc(-c2nsc3c(N4CCN(S(=O)(=O)c5ccccc5F)CC4)ncnc23)cc1 |  | inactive: 26.2%
Cc1ccc(C(=O)N(CC(=O)NC2CCCC2)c2cccc(F)c2)s1 |  | inactive: 2.89%
COc1ccc2c(c1)Sc1ccccc1N2 | inconclusive: 29.1 µM [inhibitor, single point] | 
CCOC(=O)c1ccc(NC(=O)NC2CC3CCC(C2)N3Cc2nnnn2Cc2ccco2)cc1 (stereo unspecified) | inconclusive: 18.4 µM [inhibitor, partial curve] | 
COc1ccc(C(=O)COC(=O)CN2CC(=O)Oc3ccccc32)cc1Br |  | inactive: -1.18%
CN(C(=S)NC(=O)Cc1ccccc1)c1ccccc1 |  | inactive: 1.96%
Cc1ccccc1N1C(=O)C2C3CCC(O3)C2C1=O (stereo unspecified) |  | inactive: 2.09%
Cc1cc(-c2ccc(Br)cc2)n[nH]1 | inconclusive: 20.6 µM [activator, partial curve] | 
Cc1ccc(Cn2c(Sc3nccc(C)n3)nc3c2c(=O)[nH]c(=O)n3C)cc1 | inconclusive: 8.91 µM [inhibitor, partial curve, poor fit] | 
Cc1cccc(C(=O)N2CCCC(c3nc(-c4ccc(C)o4)no3)C2)c1 (stereo unspecified) | inconclusive: 9.2 µM [activator, partial curve] | 
CCOC(=O)c1ccc(S(=O)(=O)NCCNCc2ccccc2)cc1 |  | inactive: -2.4%
CCCc1nn(C)c(C(=O)Nc2cccc(Cl)c2)c1Cl | inconclusive: 14.6 µM [activator, partial curve] | 
S=c1[nH]nc(-c2cc(-c3ccccc3)n[nH]2)n1/N=C/C(Br)=C/c1ccccc1 | inconclusive: 29.1 µM [inhibitor, single point] | 
COC(=O)c1cccc(COC(=O)c2cccnc2SC)c1 | inconclusive: 18.4 µM [activator, single point] | 
Cc1cccc2cc(CN(CC3CCCO3)C(=O)NC3CCCCC3)c(=O)[nH]c12 (stereo unspecified) | inconclusive: 8.2 µM [inhibitor, partial curve, poor fit] | 
Cc1cc(C)c2c(N)c(C(=O)Nc3ccc(C)c(C)c3)sc2n1 | inconclusive: 1.64 µM [activator, full curve] | 
CCc1cccc(CC)c1NC(=S)NCc1ccc2c(c1)OCO2 |  | inactive: 0.0946%

SMILES | Potency | activity change, negative = inhibition
S=C(NCCCn1ccnc1)Nc1ccc(Cl)cc1Cl |  | inactive: 1.31%
CN(Cc1cccc2cnccc12)C(=O)c1cc(COc2ccc(F)cc2Cl)on1 | active: 20.6 µM | 
Cc1ccc2nc(N(CCN3CCOCC3)C(=O)CCS(=O)(=O)c3ccccc3)sc2c1 | inconclusive: 18.3 µM [activator, partial curve] | 
c1cncc(-c2nc(-c3ccco3)cs2)c1 | inconclusive: 23.1 µM [activator, partial curve] | 
CN(C)CCNc1nc2sc3c(c2c(=O)n1-c1ccc(F)cc1)CCCCC3 |  | inactive: 10.1%
CN(C)c1cccc(C(=O)Nc2cccc(F)c2)c1 | inconclusive: 6.51 µM [activator, partial curve] | 
C#CCNC(=O)C1=C[C@@H](C(C)(C)C)C[C@@H](OCc2ccc(CO)cc2)O1 | inconclusive: 18.3 µM [inhibitor, partial curve, poor fit] | 
COc1cc(C(=O)N2CCN(c3ncnc4sc(C)c(C)c34)CC2)cc(OC)c1OC | active: 6.51 µM | 
CCOc1ccccc1CNC(=O)c1ccccc1NC(=O)C1=CSCCO1 | inconclusive: 29.1 µM [inhibitor, single point] | 
CC1CCN(S(=O)(=O)c2ccc3c(c2)oc(=O)n3CC(=O)N2c3ccccc3CC2C)CC1 (stereo unspecified) |  | inactive: -3.52%
Cc1ccc(Cn2c(NCCc3ccccc3)nc3c2c(=O)n(C)c(=O)n3C)cc1 | inconclusive: 17.8 µM [inhibitor, single point] | 
CC(=O)N1C(C)(C)CC(=NOS(=O)(=O)c2ccccc2)CC1(C)C | inconclusive: 25.9 µM [activator, single point] | 
O=C(O)C/C(=C\c1cc(Cl)c2c(c1)OCO2)c1nc2ccccc2s1 | inconclusive: 1.16 µM [inhibitor, single point] | 
O=C(O)CC(CCc1ccccc1)OC1OC(CO)C(O)C(O)C1O (stereo unspecified) |  | inactive: 4.36%
CSc1ccccc1NC(=O)c1csc(C)c1 | inconclusive: 18.3 µM [activator, single point] | 
COc1ccc2nc(-c3ccccc3)cc(C(=O)OCC(=O)N3CC(C)OC(C)C3)c2c1 (stereo unspecified) | inconclusive: 10.3 µM [inhibitor, partial curve] | 
CC(O)Cn1c(N2CCCC2)nc2c1c(=O)[nH]c(=O)n2C (stereo unspecified) |  | inactive: 9.6%
O=C(CSc1nc(C2CC2)nc2sc3c(c12)CCCC3)NCc1ccco1 |  | inactive: 18%
CN(C)C1(CN=Cc2cc(Cl)cc([N+](=O)[O-])c2O)CCCCC1 | inconclusive: 32.6 µM [inhibitor, partial curve, poor fit] | 
Cc1ncc(CO)c(/C=N/N=C/c2ccccc2O)c1O | inconclusive: 18.4 µM [activator, partial curve] | 
CN(C(=O)c1cccc(NC(=O)Cc2ccc([N+](=O)[O-])cc2)c1)C1CCC1 | inconclusive: 29.1 µM [inhibitor, single point] | 
Cc1cccc2cc(CN(CCCO)C(=O)Nc3cccc(Cl)c3)c(=O)[nH]c12 | active: 13 µM | 
Cc1ccc(/C(N)=N/OC(=O)Cc2cccs2)cc1 | inconclusive: 10.3 µM [activator, single point] | 

Some values from the list.
In Potency, CN(C)c1cccc(C(=O)Nc2cccc(F)c2)c1 is listed with inconclusive: 6.51 µM [activator, partial curve]
In Potency, Cc1cccc2cc(CN(CCCO)C(=O)Nc3cccc(Cl)c3)c(=O)[nH]c12 is listed with active: 13 µM
In Potency, Cc1ncc(CO)c(/C=N/N=C/c2ccccc2O)c1O is listed with inconclusive: 18.4 µM [activator, partial curve]
In activity change, negative = inhibition, CN(C)CCNc1nc2sc3c(c2c(=O)n1-c1ccc(F)cc1)CCCCC3 is listed with inactive: 10.1%
